Reference: paper PMC6510753
These are yes or no findings as the source states them, for the method shown. Binding seen in cells or lysates may run through a third protein. Binding can be weak; no strength is given. Where a sequence is shown, tags or fusion partners need not be part of it.

Molecular target: free fatty acid receptor 1 (FFAR1)
Experiment: co-IP; HEK293 co-transfected with PDE4A5-vsv, GPR40 and arrestin-2; cells treated with 500 μM palmitic acid for various times; lysates in 1% Nonidet P-40, 150 mM NaCl, 1 mM EDTA, 10 mM Tris-HCl pH 8.0; IP with anti-Flag, immunoblot with anti-Vsv and ARB2

B1: phosphodiesterase 4A5 (PDE4A5), VSV-tagged (enzyme, UniProt P54748-1 1-844)
chain: MEPPAAPSERSLSLSLPGPREGQATLKPPPQHLWRQPRTPIRIQQRGYPDSAERSETERSPHRPIERADAVDTGDRPGLRTTRMSWPSSFHGTGTGGGSSRRLEAENGPTPSPGRSPLDSQASPGLVLHAGATTSQRRESFLYRSDSDYDMSPKAVSRSSSVASEAHAEDLIVTPFAQVLASLRSVRSNFSLLTNVPIPSNKRSPLGGPPSVCKATLSEETCQQLARETLEELDWCLEQLETMQTYRSVSEMASHKFKRMLNRELTHLSEMSRSGNQVSEYISNTFLDKQNEVEIPSPTPRQRAFQQPPPSVLRQSQPMSQITGLKKLVHTGSLNTNVPRFGVKTDQEDLLAQELENLSKWGLNIFCVSEYAGGRSLSCIMYTIFQERDLLKKFHIPVDTMMMYMLTLEDHYHADVAYHNSLHAADVLQSTHVLLATPALDAVFTDLEILAALFAAAIHDVDHPGVSNQFLINTNSELALMYNDESVLENHHLAVGFKLLQEENCDIFQNLSKRQRQSLRKMVIDMVLATDMSKHMTLLADLKTMVETKKVTSSGVLLLDNYSDRIQVLRNMVHCADLSNPTKPLELYRQWTDRIMAEFFQQGDRERERGMEISPMCDKHTASVEKSQVGFIDYIVHPLWETWADLVHPDAQDILDTLEDNRDWYHSAIRQSPSPPLEEEPGGLGHPSLPDKFQFELTLEEEEEEDSLEVPGLPTTEETFLAAEDARAQAVDWSKVKGPSTTVVEVAERLKQETASAYGAPQESMEAVGCSFSPGTPILPDVRTLSSSEEAPGLLGLPSTAAEVEAPRDHLAATRACSACSGTSGDNSAIISAPGRWGSGGDPA
With B1 the binding was “binds”.
